Reference: patent US20050130898A1 (HIDECHIKA OKADA, published 2005)
Results are given in words; binding and its absence hold for the method and conditions named. Some binding calls cover weakened binding; strength is not graded here.

Legend:
Carboxypeptidase R (CPR) [1] = target: T1, Carboxypeptidase R (CPR) (human, UniProt Q96IY4 115-423); test: enzyme kinetics
T1 sequence (looked up): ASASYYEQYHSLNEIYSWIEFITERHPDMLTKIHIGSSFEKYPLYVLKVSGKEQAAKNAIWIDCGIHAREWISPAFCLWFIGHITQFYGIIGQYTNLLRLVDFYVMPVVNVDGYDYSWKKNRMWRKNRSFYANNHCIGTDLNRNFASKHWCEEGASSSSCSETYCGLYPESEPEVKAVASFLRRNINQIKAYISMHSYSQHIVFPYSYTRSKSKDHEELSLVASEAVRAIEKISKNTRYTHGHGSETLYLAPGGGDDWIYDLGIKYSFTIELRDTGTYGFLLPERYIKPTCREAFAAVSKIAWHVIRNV

Carboxypeptidase R (CPR) [2] = target: T1, Carboxypeptidase R (CPR); test: circular dichroism of the mixture against the arithmetic sum of the single spectra, 4 C

binding (Carboxypeptidase R (CPR) [1]): binds
binding (Carboxypeptidase R (CPR) [2]): binds
Binder: CKPAKNARC (C-terminal amide (peptides prepared as amidated peptides)) [CPI-2KR (linear 9-mer peptide Cys-Lys-Pro-Ala-Lys-Asn-Ala-Arg-Cys)]
